The supplement of paper PMC5949888
Most values lie at the floor of the assay. Slopes are relative: functional sequences can read slightly below zero.

Tested on: Saccharomyces cerevisiae PS128 hsf1 delta, HSF1(1-493) fusion
Experiment: growth estimate (transactivation domain function in HSF1 fusion, heat-shock survival) (a.u. (slope of normalised read count over time)); higher = stronger growth at 37°C, i.e. more transactivation activity
Conditions: library: random library

Substance	growth estimate
FTSHAFYLQYPY	< -0.25
IDASSEIEGVHTPDGSRDDV	< -0.25
PDSNWFFFYT	< -0.25
VSDYDSRGREPVVQGSAHKC	< -0.25
GSASL	< -0.25
QFAPFRYRQSTKRDPCCSAP	< -0.25
ATPM	< -0.25
REGSSANGHSCQLGQMLGGC	< -0.25
SGRKWRAFRIWAECC	< -0.25
VTKIHVASVLEASRHISRYV	< -0.25
MGWASPITSQRANGRIDRFC	< -0.25
RYGRVGLRVFSSFGHW	< -0.25
ATICQVGHKGNGEIRQKPWC	< -0.25
GRGCELSSSGCTWMQFQ	< -0.25
RYRQTAPYPADSKRS	-0.233
KVPPAPMRLYRVGNEGRYDL	< -0.25
SVYQQVESPMHGSSVAGRAF	< -0.25
QRVVVRTRIAVQAARLTRNS	< -0.25
RASTNTSRDPDLL	< -0.25
SRIPVVMILG	< -0.25
FQRATRGKR	< -0.25
AFYRATFPPCRYAGVQLNME	< -0.25
RAFGISVETRAVGKVLHYNS	< -0.25
VKKTPTWPQDFFPIWGHSLP	-0.245
VEYYG	< -0.25

Nothing new here: entries from further up.
Substance	growth estimate
VSDYDSRGREPVVQGSAHKC	< -0.25
GSASL	< -0.25
QFAPFRYRQSTKRDPCCSAP	< -0.25
ATPM	< -0.25

Going on with the list.

Substance	growth estimate
VGGAWR	-0.246
LGGSAEGTDTTCRRS	< -0.25
RWPDKPCCSRE	< -0.25
SMTPHSRLRIAAGGFL	< -0.25
KCPS	< -0.25
TQAESRYYEGTSQERGARRT	< -0.25
RLHSNLRDSLKVT	< -0.25
CLGSGANGQISFTARLRVGP	< -0.25
DRYHHLPANSLQSRNACAYV	< -0.25
RGVETKVQGYVMNVASIAGS	< -0.25
KSRYRTHHTRT	< -0.25
WISQVKTSEGSCGSLNMSYR	< -0.25
SQGGQRQARGPERC	< -0.25
AARARDLPVPA	< -0.25
LEPVREARPLQKEHS	< -0.25
PLWGLYNIRPSMLRSVRAD	< -0.251
ENW	< -0.25
IGSDCKLHGVAYEGSRSLRH	< -0.25
SVRSKQH	< -0.25
GNFAVPQQCLAMGNGLVLQT	< -0.25
RWGTIHRGLIPLISAKCIIP	< -0.25
PAH	< -0.25
VSHLQSSVGTWCP	< -0.25
RVQQPGLGRGLCGPNIVVFY	< -0.25
AAVHGLHVGRF	< -0.25

In a second layout: results already given
Substance,growth estimate
RWPDKPCCSRE,< -0.25
RLHSNLRDSLKVT,< -0.25
RGVETKVQGYVMNVASIAGS,< -0.25

(listing goes on)

Substance	growth estimate
ADRTFEWQCHFRTFE	< -0.25
AKCFAWTSYI	< -0.25
QPISRDMVALT	< -0.25
PRWYLPPWLDTLYVPYRLTV	< -0.25
ARGIVQTRSRLSAGSSYHIP	< -0.25
MLRTLVEGLPRIGTLMDSR	< -0.25
PNSFAAIRVDVR	< -0.25
DWTVMVIHSAR	< -0.25
IVTTTTMLPGMALVWSEPNI	< -0.25
RHYGPRVPRHCP	< -0.25
VKRI	< -0.25
GTSRCNLLGALWYIELA	< -0.25
SVHPSPIILPGQ	< -0.25
DGRL	< -0.25
TTDPIIATPNRPAPGEMHAF	< -0.25
KTAIAA	< -0.25
ANFLVPKLSASVSTGAASAV	< -0.25
RIMIMVPVCVKS	< -0.25
NSGLAKQCFGAVCRGVGFKF	< -0.25
QQYQPVLIRC	< -0.25
SSRGRPKDIIGV	< -0.25
GLATSSCSLTPSWYL	< -0.25
SRSLELRTVDQSVYCWLRCR	< -0.25
RLEGLC	< -0.25
AMAGTTRINNNSYQRYMDES	-0.201

Rewritten in CSV form: entries from further up
Substance,growth estimate
QPISRDMVALT,< -0.25
PNSFAAIRVDVR,< -0.25

(listing goes on)

Substance	growth estimate
HEGSCAQMRGAYELIKRYGS	< -0.25
APLSQFGTTLLAIALNVTIY	< -0.25
RTAKVEVTRTR	< -0.25
RLINEGGP	< -0.25
SVVAMVPFGLWVNNSPGARR	< -0.25
SRFQPR	< -0.25
LCVMLQNFNSYPLAGNFCGL	< -0.25
LCPYPNRTGLLRSKRPSPLE	< -0.25
SSGLQIRFF	< -0.25
AESELISRPNTDLDFVLTST	< -0.25
QGWFGDSDLNRDWDVVRLTP	< -0.25
GGP	< -0.25
IWLIWGVPTVPAR	< -0.25
TIVG	< -0.25
LAARGINPTNRPRVISPCDS	< -0.25
PEYYHMRHFHHGVIPRRVRR	< -0.25
NPGTISSRGRAHYRPDNSCL	< -0.25
VSGFPVSQRPSRARLARVHL	< -0.25
TLRCLLLSLL	< -0.25
LARVLHRILTKPSARRDQLM	< -0.25
NKGSVGTIWKKSAHGIMLTD	< -0.25
HSMFSSLVKRNSRHPPIVVS	< -0.25
LVMTIGHAIADPNYSGHARM	< -0.25
HPALGELARPVNSDIF	< -0.25
PSHL	< -0.25

Substance	growth estimate
GRSLLEVGPTRWCKWS	< -0.25
SDINQHWENWHHELVCRSKA	< -0.25
NGCGKWCSQDATDSAGERSA	< -0.25
GSFVTCEIDFAMRLFQSTVG	< -0.25
PIGGSRGWFHGQSARPHLGP	< -0.25
FSQLVFRKYKLNTVPTSQVT	< -0.25
EECNVWWVFSC	< -0.25
VTEGAKVPQSL	< -0.25
RGVGGLSLNCRLLSGVRALT	< -0.25
RLPRCELRIPRYQSGAHLNR	< -0.25
PDVS	< -0.25
PSCPIRGGFSGHSWGFRLPS	< -0.25
GVTGLRVLSHPRSHRRRAMR	< -0.25
VKHDRG	-0.221
LRCPGSADWLSLPAVTTTTA	< -0.25
QATAVPVSTL	< -0.25
KFQERKHRVVLVYQVTNET	-0.243
QDVHGRDWLLDQVAEQIKDG	< -0.25
LVLGKLFLYGRSRHLQSLRC	< -0.25
RAVGGDYTEHFLAFP	-0.231
SLRLPQSRSNSPRERK	-0.231
ELWGT	< -0.25
QHVQRVQMDFTAAGGEARSP	< -0.25
VDGILSIAHPVW	< -0.25
RMAEQALARMGAHH	< -0.25

Substance	growth estimate
SGYQVCSCGADLPYRSRLRL	< -0.25
PQAGGT	< -0.25
QKWIVRCERTKGKKGLHGVA	< -0.25
ITSWQRRFRIGA	< -0.25
LTITCLIHIRIPEKLGAGLQ	< -0.25
DPGDHVLHYMYEPLNKREEH	< -0.25
SVIVPRPNYRES	< -0.25
AQD	< -0.25
VISLQRVDAVLDYQKL	< -0.25
SVIMPRWITKADTNGARGRR	< -0.25
RSALVPLPSMHGRRRWCIAP	< -0.25
YTVVGEQAARTGQPEPPRYP	< -0.25
IRSAHTAEFVGPSWSMCSGH	< -0.25
LVPPEGIRWEGMTSIIIARM	< -0.25
RSVTYFFE	< -0.25
VCMPQDVRVDFRNFETRGMA	< -0.25
DKLAILRVLRM	< -0.25
IPSYERRNLPPSSKFHLAVG	< -0.25
CFGLGRL	< -0.25
HYN	< -0.25
ESCKNGIS	< -0.25
RVGNTTSAVSYGPIPGHDVA	< -0.25
GVCSCVKSRPTASASLSVLF	< -0.25
SWVAQEGRITGVSPHVPHTR	< -0.25
GIIFR	< -0.25

Substance	growth estimate
TISVTEILRRRRVHDDLHAP	< -0.25
VAADQILSPFPSLTFCQKST	< -0.25
CAFGAEVGRHPL	-0.0503
TLHSATFRNSQ	-0.246
QNGTHE	< -0.25
NLNGLPNLTRRGIHAARLKG	0.0232
LYGTE	< -0.25
RAQETHTSSSTGKSTRSDAS	< -0.25
ILIGKTGHKRVVIQVHCTGG	< -0.25
TSFEILGTAYTLKLKGETRP	-0.245
MCNLPLMTMFPLE	-0.107
AWGAIVSWRSVRHRGRQWLW	< -0.25
KAG	< -0.25
ASRGAYHWGLSSMSGL	< -0.25
VGGE	< -0.25
RLPLGATIVAL	< -0.25
SVFYTSWILDIY	< -0.25
TGPFKRLRSKSRSQVTAHIC	< -0.25
GGRPCA	< -0.25
GPSCTKHTKKPSRGVGSKVA	< -0.25
LRLDKISDGKRGDMALSPRA	< -0.25
LLVPA	-0.0415
VWNRVQRSQSNANR	< -0.25
NPNDRYGQACGVSDREF	< -0.25
GHFSRYWASVGVDRSAAPNP	< -0.25

Substance	growth estimate
GALVGFLGRVALWKSGLPAY	< -0.25
RCSRAYWKLQVRSALC	< -0.25
KLVSLLLSRVGVSGIS	< -0.25
GLLLTW	< -0.25
VKD	< -0.25
FNTTGLAPERHTRTIISHQG	< -0.25
QAWC	< -0.25
LRRRR	< -0.25
TLC	< -0.25
IRSSLHRRA	< -0.25
RHWWFCPSWSTPDYRVADYC	< -0.25
ERVDTLKNLFRRCVHIRFSG	< -0.25
MPAELLVSVEPAKSCRTPCT	< -0.25
TLTETFPDCP	< -0.25
CSLVKACDELVGHA	< -0.25
YSPAAE	< -0.25
SNEV	< -0.25
YERGRLISGISRGP	< -0.25
SMSRSAPEFSGGLGHSEERF	< -0.25
GRRSRHHVKARGTCTKGHTS	< -0.25
RVSKG	< -0.25
RYRAPYANDTMRATQNLQFA	< -0.25
VLGKDRMPAHIKKRRVGMHV	< -0.25
RRLPKSLYSKD	< -0.25
